Reference: publication PMC5248655 (ACS chemical neuroscience, 2015)
Counter-ions that a name gives are not always drawn. Like-named read-outs stand apart in the source and are kept apart here.

Legend:
Sprague–Dawley male rats [1] = assay: TCA precipitation assay of Aβ degradation in treated rats; format: in vivo, rat; conditions: rats treated 26 days, data not shown
Aβ40 = conditions: rat, in vivo
Aβ42 = conditions: rat, in vivo
Sprague–Dawley male rats [2] = assay: Brain efflux index; conditions: aged rats (24 months) after 26 day treatment; absolute value reached
LRP1 = conditions: 26 day treatment, Western blot, n = 5

`COc1cc2c(cc1OC)C(=O)C(CC1CCN(Cc3ccccc3)CC1)C2` (stereo not drawn) [donepezil, Donepezil hydrochloride] was tested. Which “effect on Aβ degradation” value (Sprague–Dawley male rats [1]) did it give?
The value was “no effect”.

And the “reduction of total brain Aβ40 level” value (Aβ40)?
The value was 29%.

And the “total Aβ40 level in brain” value (Aβ40)?
The value was 2497 ± 142 pmol/g brain tissue.

What about the “reduction of total brain Aβ42 level” value (Aβ42) of the same compound?
Its value is 41%.

What about the “reduction trend in brain Aβ42 levels (in words)” value (Aβ42) of the same compound?
The value was “not statistically significant”.

What about the “total Aβ42 level in brain” value (Aβ42) of the same compound?
Its value is 586 ± 31 pmol/g brain tissue.

And the “^125I-Aβ40 BEI%” value (Sprague–Dawley male rats [2])?
Its value is 61%.

What about the “increase in brain LRP1 protein expression” value (LRP1; aged rats) of the same compound?
Its value is 20%.

What about the “increase in brain LRP1 protein expression” value (LRP1; young rats) of the same compound?
Its value is 22%.
